Record: PubChem BioAssay AID1259424 (University of Nebraska Medical Center, 2018)
Purpose: 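Seek colon cancer survival genes behaving like KSR1, using a six-gene signature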 (primary screen). Cells: human HCT116 colon cancer cells. Knock-down reagent: siRNA pool against human genes, 50 nM. Detection: 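Log2 levels of six mRNAs (branched-DNA multiplex), adjusted by two reference genes and the non-targeting median, then scored against the average KSR1 knockdown pattern as Pearson r and euclidean distance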. Scale: mean correlation with KSR1 profile and KSR1 correlation: higher = expression change more like KSR1 knockdown; mean distance from KSR1 profile: higher = expression change less like KSR1 knockdown.
Shown is one part, drawn at random, of about 14,000 reagents. 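Higher correlation or smaller distance means closer resemblance to KSR1 loss; control wells, including KSR1 knockdowns, recur on many plates.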 The record does not give: the time to read-out.

The first 3 records as a preview:
| target | mean correlation with KSR1 profile | mean distance from KSR1 profile | KSR1 correlation, replicate 1 | KSR1 correlation, replicate 2 | KSR1 correlation, replicate 3 |
| --- | --- | --- | --- | --- | --- |
| SNX4 (sorting nexin 4) | -0.349 | 3.72 | -0.173 | -0.426 | -0.428 |
| PEX7 (peroxisomal biogenesis factor 7) | -0.216 | 1.57 | -0.0307 | -0.0546 | -0.408 |
| CR2 (complement C3d receptor 2) | 0.186 | 1.29 | 0.451 | 0.0688 | 0.22 |

The listing, from the first entry:
| target | mean correlation with KSR1 profile | mean distance from KSR1 profile | KSR1 correlation, replicate 1 | KSR1 correlation, replicate 2 | KSR1 correlation, replicate 3 |
| --- | --- | --- | --- | --- | --- |
| SNX4 (sorting nexin 4) | -0.349 | 3.72 | -0.173 | -0.426 | -0.428 |
| PEX7 (peroxisomal biogenesis factor 7) | -0.216 | 1.57 | -0.0307 | -0.0546 | -0.408 |
| CR2 (complement C3d receptor 2) | 0.186 | 1.29 | 0.451 | 0.0688 | 0.22 |
| MED6 (mediator complex subunit 6) | 0.00438 | 3.88 | 0.129 | 0.0915 | -0.602 |
| OTUB2 (OTU deubiquitinase, ubiquitin aldehyde binding 2) | -0.44 | 1.88 | -0.513 | -0.511 | -0.395 |
| NFIX (nuclear factor I X) | -0.494 | 3.08 | -0.351 | -0.183 | -0.755 |
| TRMT1 (tRNA methyltransferase 1) | -0.625 | 2.79 | -0.541 | -0.348 | -0.615 |
| PDE6C (phosphodiesterase 6C) | -0.317 | 3.75 | -0.432 | -0.249 | -0.269 |
| C1orf54 (chromosome 1 open reading frame 54) | 0.141 | 2.26 | 0.42 | 0.269 | -0.0645 |
| PDPN (podoplanin) | -0.357 | 6.03 | -0.215 | -0.289 | -0.407 |
| CDK1 (cyclin dependent kinase 1) | 0.0123 | 4.91 | 0.0668 | 0.179 | -0.23 |
| BCL2L13 (BCL2 like 13) | -0.223 | 1.42 | -0.228 | -0.0674 | -0.191 |
| HIPK3 (homeodomain interacting protein kinase 3) | 0.149 | 2.25 | 0.509 | -0.0712 | -0.0922 |
| PSMA7 (proteasome 20S subunit alpha 7) | 0.0488 | 4.33 | 0.193 | 0.026 | -0.121 |
| RAC3 (Rac family small GTPase 3) | -0.161 | 2.11 | -0.27 | 0.0441 | 0.598 |
| STK11 (serine/threonine kinase 11) | 0.123 | 1.32 | 0.274 | 0.191 | -0.338 |
| PLAU (plasminogen activator, urokinase) | 0.129 | 1.5 | -0.00332 | 0.289 | 0.128 |
| CHRNA10 (cholinergic receptor nicotinic alpha 10 subunit) | 0.0258 | 3.37 | 0.153 | -0.0677 | 0.0782 |
| KPNA1 (karyopherin subunit alpha 1) | -0.295 | 2.35 | -0.312 | -0.565 | -0.168 |
| NCOA2 (nuclear receptor coactivator 2) | -0.529 | 2.28 | -0.469 | -0.316 | -0.739 |
| ZNG1A (Zn regulated GTPase metalloprotein activator 1A) | -0.186 | 2.13 | -0.683 | 0.115 | -0.0749 |
| ZBTB37 (zinc finger and BTB domain containing 37) | 0.813 | 2.15 | 0.816 | 0.804 | 0.548 |
| CRYZL1 (crystallin zeta like 1) | 0.247 | 3.55 | 0.182 | 0.195 | 0.165 |
| PHEX (phosphate regulating endopeptidase X-linked) | -0.13 | 1.45 | -0.526 | 0.0687 | 0.0107 |
| IRX1 (iroquois homeobox 1) | 0.78 | 1.53 | 0.836 | 0.79 | 0.667 |
| UBE2I (ubiquitin conjugating enzyme E2 I) | -0.00123 | 3.56 | 0.095 | -0.0699 | -0.202 |
| CST7 (cystatin F) | -0.559 | 2.85 | -0.583 | -0.716 | -0.563 |
| HSPA2 (heat shock protein family A (Hsp70) member 2) | 0.149 | 1.93 | -0.148 | 0.182 | -0.0901 |
| GTF2A2 (general transcription factor IIA subunit 2) | 0.318 | 2.07 | 0.0505 | 0.233 | 0.463 |
| ERG (ETS transcription factor ERG) | -0.328 | 1.71 | -0.259 | -0.385 | -0.0387 |
| PRAMEF1 (PRAME family member 1) | 0.137 | 1.74 | 0.162 | -0.095 | -0.0951 |
| KDSR (3-ketodihydrosphingosine reductase) | 0.376 | 1.84 | 0.457 | 0.479 | 0.283 |
| FBLIM1 (filamin binding LIM protein 1) | -0.591 | 3.78 | -0.43 | -0.766 | -0.593 |
| ABCA13 (ATP binding cassette subfamily A member 13) | 0.626 | 1.93 | 0.807 | 0.772 | 0.265 |
